PubChem BioAssay AID686937 – Drosophila RNAi Screening Center – 2013
The screen tested about 23,000 reagents; shown is a random part of those that have a named target and a result. 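Reduced-secretion tags in replicate 1 do not always agree with the z-scores; no criterion for assigning the tags was given.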 The numbers tell different reagents against one gene apart. A plus sign joins genes that one reagent is predicted to hit. Further read-outs or replicates are left out here. Not given: the amount of reagent.

Purpose: 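Genes in the fly needed for secretion of protein constitutively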 (primary screen)
System: Drosophila S2 cells expressing secreted horseradish peroxidase
Reagent: long dsRNA against Drosophila genes
Time to read-out: about 5.5 days (5 days dsRNA, then 12 h reporter induction)
Conditions: reporter expression induced after 5 days of dsRNA, read 12 h later; inducer not stated
Measured: 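Chemiluminescent measurement of peroxidase in the medium 12 h after reporter induction, following 5 days of dsRNA, given as a z-score per plate; higher means more secretion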
Scale: z-score: higher = more reporter secreted into medium

no.	gene	reagent no.	z-score, replicate 1	z-score, replicate 2	z-score, replicate 3
1	CG8654	1	-0.27	-0.2	
2	slp1	1	0.18	0.36	
3	Tob	1	0.35	0.13	
4	CG17672	1	-5.78	-4.43	
5	CG17672	2	-0.06	0.23	
6	CG17764	1	0.35	-0.04	
7	CG15118	1	0.07	0.36	
8	CG32812	1	-0.9	0.42	
9	Con	1	0.52	0.35	
10	SRPK	1	0.21	0.38	
11	CysRS	1	-0.04	0.38	0.27
12	Sox21b	1	0.18	0.5	0.47
13	Sox21b	2	-0.36	0.03	
14	Sox21b	3	1.42	0.78	
15	ND-13B	1	-0.3	0.13	
16	mid	1	0.37	0.1	0.25
17	mid	2	0.14	-0.79	
18	Ts	1	0.3	0.37	
19	Ts	2	0.15	-0.19	
20	CG10914	1	0.39	0.2	
21	alpha-Man-IIb	1	0.32	0.24	
22	brun	1	0.04	0.31	
23	Srp19	1	-0.83	-0.13	
24	Rrp40	1	-1.86	-0.32	
25	sisA	1	0.27	0.39	
26	bchs	1	0.05	0.13	
27	CG18367	1	0.48	0.37	0.65
28	CG42586 + CG31775	1	-3.3	-1.52	0.31

The list goes on (2 carried over from the part before).
no.	gene	reagent no.	z-score, replicate 1	z-score, replicate 2	z-score, replicate 3
27	CG18367	1	0.48	0.37	0.65
28	CG42586 + CG31775	1	-3.3	-1.52	0.31
29	Or83c	1	-0.05	-0.03	
30	CG13325	1	0.28	0.17	
31	Spt7	1	0.26	0.71	
32	vsg	1	0.43	-0.1	
33	CG34133	1	0.41	0.44	
34	CG34133	2	0.17	0.64	
35	betaNACtes6	1	-0.12	-0.17	
36	CG16972	1	0.33	0.41	
37	CG15635	1	0.47	0	0.4
38	CG15635	2	2.78	1	
39	Ccdc58	1	0.15	-0.28	
40	betaGlu	1	0.23	0.12	
41	Hsc70-4	1	-4.59	-4.82	
42	Swim	1	-0.05	0.25	
43	CG34005	1	0.31	0.37	
44	CG13177	1	0.04	-0.29	
45	PTP-ER	1	0.63	0.41	
46	CG44837	1	-0.55	-0.07	
47	CG44837	2	0.1	0.14	
48	CG10097 + CG10096	1	0.25	0.29	
49	CG10097 + CG10096	2	0.19	0.2	
50	CG17930	1	0.43	0.44	
51	Tret1-1	1	0.17	0.25	
52	Tret1-1	2	-0.16	0.12	
53	lncRNA:yar	1	0.39	0.19	0.52
54	lncRNA:yar	2	0.65	3.11	
55	Cog3	1	-1.59	-1.18	
56	CG7457	1	0.37	0.42	
57	CG13069	1	0.45	0.25	
58	fra	1	0.15	0.12	
59	RpS6	1	-2.9	-3.04	
60	CG14053	1	0.24	0.06	
61	Gbs-76A	1	0.1	0.26	
62	CG7065	1	0.59	0.56	
63	drd	1	0.26	0.43	
64	drd	2	1.29	0.79	
65	CG42729	1	0.24	0.12	
66	meng	1	0.59	0.19	
67	Cpr47Ee	1	-2.88	-3.17	
68	CG14615	1	-0.15	0.05	
69	PIG-K	1	0.49	0.39	
70	CG34315 + Orc3	1	0.27	0.2	
71	Ciz1	1	-0.91	-0.9	
72	CG7606	1	0.51	0.24	
73	CG7606	2	-0.29	-0.1	
74	Gpxl	1	0.43	0.2	
75	Parg	1	0.12	0.17	
76	caup	1	-2.21	-1.22	
77	dlt	1	0.2	-0.03	
78	Hph	1	0.14	0.4	
79	Hph	2	0.58	0.4	
80	Hph	3	-0.21	0.12	
81	Acp1	1	0.3	0.29	
82	eIF1	1	-1.74	-0.65	
